# Some of these results come from one statement about several compounds together.
# Assay: Instantaneous solubility in deionized water at room temperature
# Assay type: physicochemical
# Conditions: instantaneous and equilibrium solubility, compared with pure Reb D, Reb M and their blend
# From the text: The composition can optionally be expressed in terms of the concentration of one or more steviol glycoside(s). Beneficially, it has been founds that compound(s) SG101-104 can improve solubility of steviol glycosides in an aqueous solution, and therefore compositions can be prepared having a greater concentration of steviol glycosides in solution. […] Clear solutions without precipitates are considered soluble. Unless indicated otherwise herein, the term “solubility” refers to “equilibrium solubility.”
# Instantaneous solubility is determined by mixing steviol glycoside with deionized water vigorously for 10 minutes at room temperature. […] Clear solutions without precipitates are considered soluble.
row,Structure (SMILES),effect on solubility of Reb D and Reb M
1,C=C1C[C@@]23CCC4[C@](C)(C(=O)OC5OC(CO)C(O)C(OC6OC(CO)C(O)C(O)C6O)C5OC5OC(CO)C(O)C(O)C5O)CCC[C@@]4(C)[C@@H]2CCC1(OC1OC(CO)C(O)C(OC2OC(COC4OC(CO)C(O)C(O)C4O)C(O)C(O)C2O)C1OC1OC(CO)C(O)C(O)C1O)C3 (stereo partly shown) [SG104],showed a significant effect on the solubility of Reb D and Reb M in a composition
2,C=C1C[C@@]23CCC4[C@](C)(C(=O)OC5OC(CO)C(O)C(O)C5OC5OC(CO)C(O)C(O)C5O)CCC[C@@]4(C)[C@@H]2CCC1(OC1OC(CO)C(O)C(OC2OC(COC4OC(CO)C(O)C(O)C4O)C(O)C(O)C2O)C1OC1OC(CO)C(O)C(O)C1O)C3 (stereo partly shown) [SG103],showed a significant effect on the solubility of Reb D and Reb M in a composition
3,C=C1C[C@@]23CCC4[C@](C)(C(=O)OC5OC(CO)C(O)C(O)C5OC5OC(CO)C(O)C(O)C5O)CCC[C@@]4(C)[C@@H]2CCC1(OC1OC(COC2OC(CO)C(O)C(O)C2O)C(O)C(OC2OC(CO)C(O)C(O)C2O)C1OC1OC(CO)C(O)C(O)C1O)C3 (stereo partly shown) [SG101],showed a significant effect on the solubility of Reb D and Reb M in a composition
4,C=C1C[C@@]23CCC4[C@](C)(C(=O)OC5OC(CO)C(O)C(OC6OC(CO)C(O)C(O)C6O)C5OC5OC(CO)C(O)C(O)C5O)CCC[C@@]4(C)[C@@H]2CCC1(OC1OC(COC2OC(CO)C(O)C(O)C2O)C(O)C(OC2OC(CO)C(O)C(O)C2O)C1OC1OC(CO)C(O)C(O)C1O)C3 (stereo partly shown) [SG102],showed a significant effect on the solubility of Reb D and Reb M in a composition

# Reference: patent publication US20220295849A1, “Steviol Glycoside Compositions for Oral Ingestion or Use” (CARGILL, Incorporated, priority 2016, published 2022)
